Numbering of substitutions follows the chain as printed. These are yes or no findings as the source states them, for the method shown.

B1: UaLPLO3-547 (antibody, V domains shown)
VH: EVQLVESGGGLVQPGGSLRLSCSTSGFDFSRHWMTWVRQAPGKGLEWVADIKKDGSEENYVDTVKGRLTISRDNARRSLYLQMNSLRTDDTAVYYCARGPSYGDRSDYLDNWGQGTLVTVSS
VL: DIVMTQSPLSLAVTPGEPASISCRSSQWLLESNGHNYLDWYLQKPGQSPQLLIPLGSNRASGVPDRFSGSGSGTDFTLTISRVEAEDVGVYYCMQPLKLPYTFGQGTKLEIK
B2: UaLPLO3-555 (antibody, V domains shown)
VH: B1 VH
VL: B1 VL with P54S
B3: UaLPLO3-601 (antibody, V domains shown)
VH: EVQLVESGGGLVQPGGSLRLSCEASGFTFSRNWMSWVRQIPGKGLEWVADIKADGSEKVYLDSMKGRLTISRDNARNLLYLQMDSLRVEDSALYHCARGPSYGDRCDYLDHWGRGALVTVSS
VL: DIVMTQSPLSLPVTPGEPASISCRSSQSLLEPNGHNYVDWYQQKPGQSPRLLIYLGSNRASGVPDRFSGSGGGTDFTLKISRVEAEDVGLYYCMQPLQTPYTFGQGTKLEIK
B4: UaLPLO3-208L (antibody, V domains shown)
VH: QLQLQESGPGLVKPSETLSLTCSVSGVSISNFNYYWGWVRQPPGKPLEWIGTIYYNGNTYYNPSLKSRVTISVDTSKTQLSLKLLSVTAADTAVYYCAWDSGSVERFDHWSQGTLVTVSS
VL: QSVLTQPPSTSGTPGQRVTISCSGSSSNIGSKTVNWYKQVPGTAPKLLVFNDNQRPSRVPDRFSGSKSGTSASLAISGLQSDDEADYYCAAWDDNFNGLLFGGGTKLTVL

In this assay the target is Streptavidin (UniProt P22629). Description: Streptavidin ELISA (streptavidin-coated plate without biotinylated O-antigen), area under the OD405 titration curve. For orientation: In an ELISA, binding on a coated surface is turned into a signal by an enzyme label.
In the case of B1, the binding result was “no binding (tested: 4 ug/ml)”.
Next, B2: “no binding (tested: 4 ug/ml)”.
The entry for B3 is “no binding (tested: 4 ug/ml)”; for B4 it is “no binding (tested: 4 ug/ml)”.

Source of the values: patent US10759848.
